This is an account of results in paper PMC11758950.

Results are given in words; binding and its absence hold for the method and conditions named. Binding seen in cells or lysates may run through a third protein. Binding calls can cover weak binding; strength is not graded here.

The target in the test is T1, ELFN1-Venus (mouse) (UniProt Q8C8T7).
T1 sequence: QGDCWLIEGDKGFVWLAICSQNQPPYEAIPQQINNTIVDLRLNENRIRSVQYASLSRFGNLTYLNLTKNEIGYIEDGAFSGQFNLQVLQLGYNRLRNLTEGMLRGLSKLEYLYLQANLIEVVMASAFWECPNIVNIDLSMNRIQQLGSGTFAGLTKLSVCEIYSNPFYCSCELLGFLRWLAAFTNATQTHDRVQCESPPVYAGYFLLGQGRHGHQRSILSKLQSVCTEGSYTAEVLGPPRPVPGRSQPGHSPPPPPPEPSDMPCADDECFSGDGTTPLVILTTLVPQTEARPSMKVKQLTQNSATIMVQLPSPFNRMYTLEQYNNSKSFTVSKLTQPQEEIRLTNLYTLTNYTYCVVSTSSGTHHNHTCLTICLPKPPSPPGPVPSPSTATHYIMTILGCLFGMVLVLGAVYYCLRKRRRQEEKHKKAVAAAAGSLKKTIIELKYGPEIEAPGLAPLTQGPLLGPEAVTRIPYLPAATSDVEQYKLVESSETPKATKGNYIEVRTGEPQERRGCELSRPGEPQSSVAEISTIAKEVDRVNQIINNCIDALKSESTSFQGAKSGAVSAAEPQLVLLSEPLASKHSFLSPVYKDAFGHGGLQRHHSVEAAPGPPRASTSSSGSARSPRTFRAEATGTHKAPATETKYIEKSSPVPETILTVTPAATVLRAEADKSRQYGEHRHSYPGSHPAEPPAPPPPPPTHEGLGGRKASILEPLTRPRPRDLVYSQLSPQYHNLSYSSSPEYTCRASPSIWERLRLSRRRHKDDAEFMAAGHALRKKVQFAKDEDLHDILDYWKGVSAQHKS
The test is described as follows: co-IP; co-transfected HEK 293 T/17 cells (2.5 ug of each construct), 1% Triton-X lysis buffer; Protein G Sepharose beads with mouse GFP antibody, 1 h at 4 C, washed 3 times; blot with myc antibody.
ELFN1ΔFN3-myc (from UniProt Q8C8T7): the binding entry is “binds”.

ELFN1ΔLRR-myc (from UniProt Q8C8T7): the binding entry is on record as “no binding”. The entry for ELFN1ΔSP-myc (from UniProt Q8C8T7) is “binds”.
